Measured values: paper PMC12557380, “Optimization of 2,8-Diaryl-1,5-naphthyridines as Plasmodium falciparum Phosphatidylinositol 4‑Kinase Inhibitors with Improved ADME Profiles and In Vivo Efficacy” (Journal of Medicinal Chemistry, 2025)

System: Chinese hamster ovary cells
Assay: Cytotoxicity, MTT assay, CHO
Assay type: cell-based
Settings: for CHO SI (NF54): CHO IC50/PfNF54 IC50; for CHO SI (K1): selectivity index with respect to K1 IC50, ratio IC50 (Chinese hamster ovary cells) / IC50 (P. falciparum K1)

Row | Compound | CHO SI (NF54) | CHO SI (K1)
1 | CS(=O)(=O)c1cccc(-c2ccc3nccc(-c4cccc(S(C)(=O)=O)c4)c3n2)c1 [Compound 18, 2,8-Bis(3-methylsulfonylphenyl)-1,5-naphthyridine] | 2176 | 
2 | Cn1ccc(-c2ccc3nccc(-c4ccc(C(C)(C)O)nc4)c3n2)cc1=O [Compound 24, 4-[8-[6-(2-Hydroxypropan-2-yl)pyridin-3-yl]-1,5-naphthyridin-2-yl]-1-methylpyridin-2-one] | 333 | 109
3 | CC(C)(O)c1ccc(-c2ccnc3ccc(-c4ccnc(N5C[C@H](O)[C@@H](O)C5)c4)nc23)cn1 [Compound 28, (3S,4S)-1-[4-[8-[6-(2-Hydroxypropan-2-yl)pyridin-3-yl]-1,5-naphthyridin-2-yl]pyridin-2-yl]pyrrolidine-3,4-diol] | >1162 | >943
4 | CC(C)(O)c1cccc(-c2ccc3nccc(-c4ccc(C(C)(C)O)nc4)c3n2)c1 [Compound 30, 2-[3-[8-[6-(2-Hydroxypropan-2-yl)pyridin-3-yl]-1,5-naphthyridin-2-yl]phenyl]propan-2-ol] | 30 | 88
5 | CS(=O)(=O)c1cccc(-c2ccc3nccc(-c4ccc(C(=O)N5CCC(O)C5)cc4)c3n2)c1 (stereo not shown) [Compound 37, (3-Hydroxypyrrolidin-1-yl)-[4-[6-(3-methylsulfonylphenyl)-1,5-naphthyridin-4-yl]phenyl]methanone] | 750 | 250
6 | CS(=O)(=O)c1cccc(-c2ccc3nccc(-c4ccc(C(=O)N5CC[C@H](N)C5)cc4)c3n2)c1 [Compound 38, [(3S)-3-Aminopyrrolidin-1-yl]-[4-[6-(3-methylsulfonylphenyl)-1,5-naphthyridin-4-yl]phenyl]methanone] | 583 | 
